No constants are given. Whether binding was seen depends on the method and setting. Some entries that bind do so weakly or less than the wild type.
Experiments:
GST-HDAC1 375-482 = GST-HDAC1 375-482 (UniProt Q13547); assay: pull-down; 300 ng GST-tagged protein immobilised on glutathione-sepharose 4B; 100 ng purified Flag-tagged protein in 150 uL (150 mM NaCl, 50 mM Tris-HCl pH 8.0, 2 mM EDTA, 0.1% Nonidet P40), 30 min, room temperature; anti-Flag Western blot; for HDAC1 on GST-H3 also with 100 nM or 300 nM TSA; both purified
GST-HDAC1 1-117 = GST-HDAC1 1-117 (UniProt Q13547); assay: as above

Amino acid sequences for entries named in this document (tags omitted). Residues count along the entry.
GST-HDAC1 1-117 (Q13547, residues 1-117): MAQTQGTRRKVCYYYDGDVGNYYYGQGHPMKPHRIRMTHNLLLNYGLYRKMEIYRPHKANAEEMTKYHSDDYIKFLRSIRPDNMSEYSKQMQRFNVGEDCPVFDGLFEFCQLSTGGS
GST-HDAC1 375-482 (Q13547, residues 375-482): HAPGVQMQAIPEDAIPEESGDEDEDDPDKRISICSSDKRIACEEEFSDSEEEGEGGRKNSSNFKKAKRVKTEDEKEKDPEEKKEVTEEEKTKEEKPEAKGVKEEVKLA
UniProt Q09472: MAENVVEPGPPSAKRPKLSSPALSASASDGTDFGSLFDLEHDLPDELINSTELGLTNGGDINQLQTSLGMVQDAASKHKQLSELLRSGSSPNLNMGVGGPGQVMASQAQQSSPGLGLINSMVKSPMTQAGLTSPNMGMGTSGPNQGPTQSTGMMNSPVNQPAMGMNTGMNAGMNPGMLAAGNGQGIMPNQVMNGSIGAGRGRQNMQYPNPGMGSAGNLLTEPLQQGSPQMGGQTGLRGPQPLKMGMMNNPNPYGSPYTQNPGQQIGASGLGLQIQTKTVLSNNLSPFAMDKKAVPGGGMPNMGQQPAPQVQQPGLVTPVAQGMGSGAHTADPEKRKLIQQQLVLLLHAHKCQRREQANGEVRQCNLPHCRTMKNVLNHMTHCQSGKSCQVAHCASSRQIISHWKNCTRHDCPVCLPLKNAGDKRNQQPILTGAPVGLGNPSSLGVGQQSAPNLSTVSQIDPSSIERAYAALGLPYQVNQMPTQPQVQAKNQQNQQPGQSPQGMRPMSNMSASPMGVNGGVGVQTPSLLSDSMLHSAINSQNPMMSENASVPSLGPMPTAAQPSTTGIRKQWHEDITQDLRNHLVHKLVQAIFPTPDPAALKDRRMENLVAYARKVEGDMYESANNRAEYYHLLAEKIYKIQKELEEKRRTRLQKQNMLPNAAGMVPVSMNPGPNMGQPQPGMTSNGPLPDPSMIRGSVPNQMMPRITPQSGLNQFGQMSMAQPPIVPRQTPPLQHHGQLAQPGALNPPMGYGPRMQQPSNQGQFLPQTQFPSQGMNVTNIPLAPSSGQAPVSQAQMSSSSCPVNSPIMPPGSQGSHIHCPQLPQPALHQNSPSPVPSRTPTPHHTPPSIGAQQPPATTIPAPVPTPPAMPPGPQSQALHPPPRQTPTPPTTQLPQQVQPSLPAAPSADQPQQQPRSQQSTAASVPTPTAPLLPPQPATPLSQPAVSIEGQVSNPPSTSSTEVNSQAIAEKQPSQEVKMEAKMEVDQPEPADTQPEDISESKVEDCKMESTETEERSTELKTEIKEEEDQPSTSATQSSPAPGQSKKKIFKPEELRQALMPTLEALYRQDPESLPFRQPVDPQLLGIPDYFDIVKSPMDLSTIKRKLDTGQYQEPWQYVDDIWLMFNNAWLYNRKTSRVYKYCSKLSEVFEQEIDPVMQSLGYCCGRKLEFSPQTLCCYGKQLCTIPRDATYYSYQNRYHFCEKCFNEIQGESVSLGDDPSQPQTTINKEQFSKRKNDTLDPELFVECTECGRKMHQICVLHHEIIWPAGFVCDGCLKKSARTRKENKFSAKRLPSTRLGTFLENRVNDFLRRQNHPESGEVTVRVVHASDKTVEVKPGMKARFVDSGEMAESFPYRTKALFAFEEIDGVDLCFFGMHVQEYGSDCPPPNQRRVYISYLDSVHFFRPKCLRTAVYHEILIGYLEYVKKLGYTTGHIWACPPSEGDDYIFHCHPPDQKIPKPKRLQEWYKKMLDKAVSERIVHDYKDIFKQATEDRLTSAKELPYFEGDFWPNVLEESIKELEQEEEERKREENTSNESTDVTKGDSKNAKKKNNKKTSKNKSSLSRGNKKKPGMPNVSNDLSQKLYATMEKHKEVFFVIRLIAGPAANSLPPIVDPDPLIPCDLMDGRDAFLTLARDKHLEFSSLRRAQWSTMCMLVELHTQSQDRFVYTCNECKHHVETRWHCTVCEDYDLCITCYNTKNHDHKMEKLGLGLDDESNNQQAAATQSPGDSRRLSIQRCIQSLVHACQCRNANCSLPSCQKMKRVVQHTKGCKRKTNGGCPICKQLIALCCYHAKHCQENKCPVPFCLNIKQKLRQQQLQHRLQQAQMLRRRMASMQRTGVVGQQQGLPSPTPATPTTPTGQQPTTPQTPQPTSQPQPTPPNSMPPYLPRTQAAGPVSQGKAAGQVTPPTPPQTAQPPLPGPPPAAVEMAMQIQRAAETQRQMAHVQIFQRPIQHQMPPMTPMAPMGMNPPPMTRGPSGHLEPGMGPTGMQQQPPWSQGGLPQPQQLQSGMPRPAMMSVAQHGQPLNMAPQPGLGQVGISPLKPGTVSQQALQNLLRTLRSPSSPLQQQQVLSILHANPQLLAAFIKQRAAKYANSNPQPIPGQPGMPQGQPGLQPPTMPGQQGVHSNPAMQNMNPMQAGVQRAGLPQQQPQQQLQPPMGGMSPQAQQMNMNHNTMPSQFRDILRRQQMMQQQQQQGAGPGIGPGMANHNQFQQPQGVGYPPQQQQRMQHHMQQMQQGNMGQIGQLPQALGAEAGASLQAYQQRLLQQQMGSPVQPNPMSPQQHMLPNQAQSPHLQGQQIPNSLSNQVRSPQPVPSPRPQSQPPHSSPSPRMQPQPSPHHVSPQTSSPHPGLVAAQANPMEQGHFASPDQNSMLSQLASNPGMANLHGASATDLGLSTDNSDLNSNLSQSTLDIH

## Flag-tagged p300 (from UniProt Q09472 1-2414) (enzyme)
GST-HDAC1 375-482
  binding: binds
GST-HDAC1 1-117
  binding: binds
